Source: paper PMC3197150

By UniProt entry, the sequences of proteins in these tests, tags left out.
UniProt P38873: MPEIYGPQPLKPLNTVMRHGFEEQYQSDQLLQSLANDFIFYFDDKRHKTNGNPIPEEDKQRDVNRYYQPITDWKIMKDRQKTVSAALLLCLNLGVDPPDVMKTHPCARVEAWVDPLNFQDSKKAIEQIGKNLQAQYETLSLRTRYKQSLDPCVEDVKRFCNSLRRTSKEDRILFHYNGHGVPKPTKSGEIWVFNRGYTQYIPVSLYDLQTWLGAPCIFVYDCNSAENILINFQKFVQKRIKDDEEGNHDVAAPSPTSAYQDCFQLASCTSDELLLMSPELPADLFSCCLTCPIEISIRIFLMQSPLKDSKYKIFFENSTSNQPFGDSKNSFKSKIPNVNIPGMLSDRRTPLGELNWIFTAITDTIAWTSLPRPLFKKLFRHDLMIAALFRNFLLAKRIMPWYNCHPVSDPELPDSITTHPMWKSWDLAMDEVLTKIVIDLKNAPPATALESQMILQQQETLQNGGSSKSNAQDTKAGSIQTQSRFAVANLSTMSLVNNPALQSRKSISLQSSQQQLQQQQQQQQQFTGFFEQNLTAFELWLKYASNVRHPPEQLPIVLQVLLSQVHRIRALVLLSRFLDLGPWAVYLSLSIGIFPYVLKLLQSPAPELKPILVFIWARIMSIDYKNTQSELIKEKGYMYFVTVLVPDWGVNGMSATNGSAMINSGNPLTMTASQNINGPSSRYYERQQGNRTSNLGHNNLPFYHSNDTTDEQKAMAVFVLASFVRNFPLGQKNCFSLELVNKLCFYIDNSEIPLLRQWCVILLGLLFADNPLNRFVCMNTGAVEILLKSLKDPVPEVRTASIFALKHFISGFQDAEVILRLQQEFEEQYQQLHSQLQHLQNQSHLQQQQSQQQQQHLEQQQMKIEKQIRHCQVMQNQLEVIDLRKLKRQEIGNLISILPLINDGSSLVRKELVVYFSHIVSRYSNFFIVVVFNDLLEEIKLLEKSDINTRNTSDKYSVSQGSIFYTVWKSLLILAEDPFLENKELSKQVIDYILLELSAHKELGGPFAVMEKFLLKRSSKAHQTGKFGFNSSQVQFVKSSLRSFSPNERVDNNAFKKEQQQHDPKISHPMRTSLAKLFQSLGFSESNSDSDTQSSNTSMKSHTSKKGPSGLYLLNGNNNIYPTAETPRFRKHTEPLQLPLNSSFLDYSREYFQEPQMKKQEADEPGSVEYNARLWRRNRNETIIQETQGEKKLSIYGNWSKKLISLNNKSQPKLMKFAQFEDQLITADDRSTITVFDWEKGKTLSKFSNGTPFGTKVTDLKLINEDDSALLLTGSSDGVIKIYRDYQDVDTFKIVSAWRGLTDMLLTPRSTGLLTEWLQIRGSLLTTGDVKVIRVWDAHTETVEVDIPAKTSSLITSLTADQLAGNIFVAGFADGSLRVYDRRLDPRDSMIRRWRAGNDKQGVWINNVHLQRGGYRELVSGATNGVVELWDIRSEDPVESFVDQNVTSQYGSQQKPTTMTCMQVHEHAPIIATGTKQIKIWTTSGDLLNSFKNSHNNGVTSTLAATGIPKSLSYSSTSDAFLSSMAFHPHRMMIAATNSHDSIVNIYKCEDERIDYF
UniProt P35169: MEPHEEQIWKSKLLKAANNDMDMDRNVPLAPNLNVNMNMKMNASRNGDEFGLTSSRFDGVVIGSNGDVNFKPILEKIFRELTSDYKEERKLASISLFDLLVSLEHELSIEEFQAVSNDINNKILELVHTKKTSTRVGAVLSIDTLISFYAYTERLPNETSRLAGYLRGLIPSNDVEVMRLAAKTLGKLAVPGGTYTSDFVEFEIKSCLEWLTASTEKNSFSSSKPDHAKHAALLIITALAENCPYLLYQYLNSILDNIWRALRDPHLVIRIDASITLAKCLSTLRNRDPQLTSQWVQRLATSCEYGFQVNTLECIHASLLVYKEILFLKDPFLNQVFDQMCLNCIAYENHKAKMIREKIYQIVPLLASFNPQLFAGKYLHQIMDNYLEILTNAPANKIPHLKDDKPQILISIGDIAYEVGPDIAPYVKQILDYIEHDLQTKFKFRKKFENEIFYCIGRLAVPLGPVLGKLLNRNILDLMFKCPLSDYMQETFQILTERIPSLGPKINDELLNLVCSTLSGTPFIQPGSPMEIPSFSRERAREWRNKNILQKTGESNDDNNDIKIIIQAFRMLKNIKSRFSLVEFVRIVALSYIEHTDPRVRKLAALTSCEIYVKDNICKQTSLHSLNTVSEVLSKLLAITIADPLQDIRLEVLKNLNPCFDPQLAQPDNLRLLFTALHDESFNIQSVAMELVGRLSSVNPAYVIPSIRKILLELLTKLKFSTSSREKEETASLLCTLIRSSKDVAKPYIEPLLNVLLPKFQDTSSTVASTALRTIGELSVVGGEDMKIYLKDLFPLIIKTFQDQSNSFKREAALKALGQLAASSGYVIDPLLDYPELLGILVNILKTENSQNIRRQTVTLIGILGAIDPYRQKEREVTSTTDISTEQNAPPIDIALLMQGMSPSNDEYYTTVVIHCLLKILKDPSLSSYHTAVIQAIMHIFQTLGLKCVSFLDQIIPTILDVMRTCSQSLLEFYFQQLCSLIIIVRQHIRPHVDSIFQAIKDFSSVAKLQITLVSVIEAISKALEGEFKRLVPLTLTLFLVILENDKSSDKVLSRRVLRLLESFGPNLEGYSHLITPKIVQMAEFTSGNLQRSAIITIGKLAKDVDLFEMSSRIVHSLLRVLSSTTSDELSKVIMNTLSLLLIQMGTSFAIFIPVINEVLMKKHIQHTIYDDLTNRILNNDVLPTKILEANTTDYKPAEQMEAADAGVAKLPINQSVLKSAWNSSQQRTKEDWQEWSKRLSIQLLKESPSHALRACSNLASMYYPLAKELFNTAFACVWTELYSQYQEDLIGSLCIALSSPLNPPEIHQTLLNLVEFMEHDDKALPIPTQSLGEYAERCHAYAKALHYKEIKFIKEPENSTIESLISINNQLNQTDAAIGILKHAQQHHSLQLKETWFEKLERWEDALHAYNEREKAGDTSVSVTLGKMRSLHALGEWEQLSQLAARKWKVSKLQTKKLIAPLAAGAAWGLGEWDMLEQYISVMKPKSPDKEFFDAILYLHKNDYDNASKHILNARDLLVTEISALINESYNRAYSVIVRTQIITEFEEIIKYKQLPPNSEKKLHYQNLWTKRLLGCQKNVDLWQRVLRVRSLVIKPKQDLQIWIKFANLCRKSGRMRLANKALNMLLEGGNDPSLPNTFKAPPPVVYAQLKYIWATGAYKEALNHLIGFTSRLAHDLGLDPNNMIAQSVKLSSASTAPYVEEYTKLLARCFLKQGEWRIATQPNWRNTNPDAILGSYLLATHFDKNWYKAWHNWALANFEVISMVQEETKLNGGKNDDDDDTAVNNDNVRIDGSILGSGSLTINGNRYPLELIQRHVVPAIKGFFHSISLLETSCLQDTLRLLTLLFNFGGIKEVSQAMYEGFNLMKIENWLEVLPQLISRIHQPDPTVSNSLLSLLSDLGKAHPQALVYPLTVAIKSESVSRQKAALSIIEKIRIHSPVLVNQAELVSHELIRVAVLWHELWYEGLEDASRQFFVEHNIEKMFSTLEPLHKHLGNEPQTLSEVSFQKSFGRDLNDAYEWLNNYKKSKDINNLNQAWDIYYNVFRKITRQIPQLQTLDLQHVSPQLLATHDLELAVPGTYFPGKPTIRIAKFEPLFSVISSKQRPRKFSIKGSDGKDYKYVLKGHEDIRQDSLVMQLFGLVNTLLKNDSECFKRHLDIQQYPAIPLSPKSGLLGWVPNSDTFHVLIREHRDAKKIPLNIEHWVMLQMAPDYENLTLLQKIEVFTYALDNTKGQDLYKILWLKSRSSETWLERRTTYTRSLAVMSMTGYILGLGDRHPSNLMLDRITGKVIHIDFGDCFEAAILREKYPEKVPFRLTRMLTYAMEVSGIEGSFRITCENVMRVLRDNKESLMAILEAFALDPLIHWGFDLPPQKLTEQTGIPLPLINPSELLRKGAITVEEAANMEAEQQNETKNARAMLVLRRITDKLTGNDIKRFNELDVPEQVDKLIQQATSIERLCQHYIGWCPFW
UniProt P02994: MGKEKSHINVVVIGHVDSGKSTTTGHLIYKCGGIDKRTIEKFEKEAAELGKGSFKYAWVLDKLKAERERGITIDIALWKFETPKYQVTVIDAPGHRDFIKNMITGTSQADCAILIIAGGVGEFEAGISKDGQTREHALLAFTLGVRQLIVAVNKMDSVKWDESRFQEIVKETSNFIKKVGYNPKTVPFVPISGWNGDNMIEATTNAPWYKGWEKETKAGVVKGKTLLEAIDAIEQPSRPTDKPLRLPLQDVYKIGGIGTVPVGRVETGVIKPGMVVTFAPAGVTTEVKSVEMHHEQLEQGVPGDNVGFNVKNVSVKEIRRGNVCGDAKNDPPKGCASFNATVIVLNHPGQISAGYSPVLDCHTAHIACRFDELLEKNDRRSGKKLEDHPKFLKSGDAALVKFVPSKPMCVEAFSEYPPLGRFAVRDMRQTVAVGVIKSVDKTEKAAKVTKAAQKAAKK

Target: Kog1p, C-terminally FLAG-tagged (KOG1-FLAG) (S. cerevisiae) (UniProt P38873)
Assay: affinity purification with mass spectrometry; KOG1-flag captured from yeast lysate (batch glucose or glucose-limited chemostat cultures) on flag antibody conjugated to magnetic protein G beads, not more than 45 min at 4°C; lysis buffer 50 mM HEPES pH 7.5, 150 mM KCl, 0.5% Tween 20; 5 short washes with added 200 mM NaCl; bands cut from SDS gels, nano HPLC/MS/MS

Molecule: Tor1p (from UniProt P35169 1-2470)
binding: binds

Molecule: Tef2p (from UniProt P02994 1-458)
binding: binds

B3: Kap123p (protein, UniProt P40069 1-1113)
chain: MDQQFLSQLEQTLHAITSGVGLKEATKTLQTQFYTQPTTLPALIHILQNGSDDSLKQLAGVEARKLVSKHWNAIDESTRASIKTSLLQTAFSEPKENVRHSNARVIASIGTEELDGNKWPDLVPNLIQTASGEDVQTRQTAIFILFSLLEDFTSSLSGHIDDFLALFSQTINDPSSLEIRSLSAQALNHVSALIEEQETINPVQAQKFAASIPSVVNVLDAVIKADDTMNAKLIFNCLNDFLLLDSQLTGNFIVDLIKLSLQIAVNSEIDEDVRVFALQFIISSLSYRKSKVSQSKLGPEITVAALKVACEEIDVDDELNNEDETGENEENTPSSSAIRLLAFASSELPPSQVASVIVEHIPAMLQSANVFERRAILLAISVAVTGSPDYILSQFDKIIPATINGLKDTEPIVKLAALKCIHQLTTDLQDEVAKFHEEYLPLIIDIIDSAKNIVIYNYATVALDGLLEFIAYDAIAKYLDPLMNKLFYMLESNESSKLRCAVVSAIGSAAFAAGSAFIPYFKTSVHYLEKFIQNCSQIEGMSEDDIELRANTFENISTMARAVRSDAFAEFAEPLVNSAYEAIKTDSARLRESGYAFIANLAKVYGENFAPFLKTILPEIFKTLELDEYQFNFDGDAEDLAAFADSANEEELQNKFTVNTGISYEKEVASAALSELALGTKEHFLPYVEQSLKVLNEQVDESYGLRETALNTIWNVVKSVLLASKVEPESYPKGIPASSYVNADVLAVIQAARETSMGNLSDEFETSMVITVMEDFANMIKQFGAIIIMDNGDSSMLEALCMQVLSVLKGTHTCQTIDIEEDVPRDEELDASETEATLQDVALEVLVSLSQALAGDFAKVFDNFRPVVFGLFQSKSKNKRSSAVGAASELALGMKEQNPFVHEMLEALVIRLTSDKSLEVRGNAAYGVGLLCEYASMDISAVYEPVLKALYELLSAADQKALAAEDDEATREIIDRAYANASGCVARMALKNSALVPLEQTVPALLAHLPLNTGFEEYNPIFELIMKLYQENSPVITNETPRIIEIFSAVFTKENDRIKLEKESTLGREENMERLKQFQTEEMKHKVIELLKYLNTTYNGIVAQNPVLAAVIA
binding: binds

B5: Uba4p (protein, UniProt P38820 1-440)
chain: MNDYHLEDTTSELEALRLENAQLREQLAKREDSSRDYPLSLEEYQRYGRQMIVEETGGVAGQVKLKNTKVLVVGAGGLGCPALPYLAGAGVGQIGIVDNDVVETSNLHRQVLHDSSRVGMLKCESARQYITKLNPHINVVTYPVRLNSSNAFDIFKGYNYILDCTDSPLTRYLVSDVAVNLGITVVSASGLGTEGQLTILNFNNIGPCYRCFYPTPPPPNAVTSCQEGGVIGPCIGLVGTMMAVETLKLILGIYTNENFSPFLMLYSGFPQQSLRTFKMRGRQEKCLCCGKNRTITKEAIEKGEINYELFCGARNYNVCEPDERISVDAFQRIYKDDEFLAKHIFLDVRPSHHYEISHFPEAVNIPIKNLRDMNGDLKKLQEKLPSVEKDSNIVILCRYGNDSQLATRLLKDKFGFSNVRDVRGGYFKYIDDIDQTIPKY
binding: binds

B8: Mks1p (protein, UniProt P34072 1-584)
chain: MSREAFDVPNIGTNKFLKVTPNLFTPERLNLFDDVELYLTLIKASKCVEQGERLHNISWRILNKAVLKEHNINRSKKRDGVKNIYYVLNPNNKQPIKPKQAAVKQPPLQKANLPPTTAKQNVLTRPMTSPAIAQGAHDRSLDNPNSTNNDVKNDVAPNRQFSKSTTSGLFSNFADKYQKMKNVNHVANKEEPQTIITGFDTSTVITKKPLQSRRSRSPFQHIGDMNMNCIDNETSKSTSPTLENMGSRKSSFPQKESLFGRPRSYKNDQNGQLSLSKTSSRKGKNKIFFSSEDEDSDWDSVSNDSEFYADEDDEEYDDYNEEEADQYYRRQWDKLLFAKNQQNLDSTKSSVSSANTINSNTSHDPVRKSLLSGLFLSEANSNSNNHNTAHSEYASKHVSPTPQSSHSNIGPQPQQNPPSANGIKQQKPSLKTSNVTALASLSPPQPSNNERLSMDIQKDFKTDNESNHLYESNAPLTAQTILPTALSTHMFLPNNIHQQRMAIATGSNTRHRFSRRQSMDIPSKNRNTGFLKTRMEISEEEKMVRTISRLDNTSIANSNGNGNDDTSNQRTEALGRKTSNGGRI
binding: binds

B9: Caf1p (protein, UniProt P39008 1-433)
chain: MQSMNVQPRVLAVGGEQFFSQRQASEQHQQQNMGPQVYSPKVNRARMFPQGMPVNTINGSVNQEMNNAYLLKQKNEPLLTQQQQQQQQQQQPFNIGTPVSVASLPPGLNVLQQQQQQQQQQQQQQQGVGLNRPLASQLPKHLTNQSMPPIFLPPPNYLFVRDVWKSNLYSEFAVIRQLVSQYNHVSISTEFVGTLARPIGTFRSKVDYHYQTMRANVDFLNPIQLGLSLSDANGNKPDNGPSTWQFNFEFDPKKEIMSTESLELLRKSGINFEKHENLGIDVFEFSQLLMDSGLMMDDSVTWITYHAAYDLGFLINILMNDSMPNNKEDFEWWVHQYMPNFYDLNLVYKIIQEFKNPQLQQSSQQQQQQQYSLTTLADELGLPRFSIFTTTGGQSLLMLLSFCQLSKLSMHKFPNGTDFAKYQGVIYGIDGDQ
binding: binds

The remaining lines, values ahead:

binding: binds
B1: Pil1p (protein, UniProt P53252 1-339)
chain: MHRTYSLRNSRAPTASQLQNPPPPPSTTKGRFFGKGGLAYSFRRSAAGAFGPELSRKLSQLVKIEKNVLRSMELTANERRDAAKQLSIWGLENDDDVSDITDKLGVLIYEVSELDDQFIDRYDQYRLTLKSIRDIEGSVQPSRDRKDKITDKIAYLKYKDPQSPKIEVLEQELVRAEAESLVAEAQLSNITRSKLRAAFNYQFDSIIEHSEKIALIAGYGKALLELLDDSPVTPGETRPAYDGYEASKQIIIDAESALNEWTLDSAQVKPTLSFKQDYEDFEPEEGEEEEEEDGQGRWSEDEQEDGQIEEPEQEEEGAVEEHEQVGHQQSESLPQQTTA

binding: binds
B2: Tma23p (protein, UniProt Q03525 1-211)
chain: MDSKEYLISYGWKEGEAFREGGLKRPILVKHKRDKKGLGNAPGGNDGEAWWERLFDGHLKNLDVSTDSNNGSIKFTQNEAVATAVSKSSSPLYRWFVKGEGLKGTITNLGKKEEASFVVSSASSSKGKKRRRRDEDDNKVKRKKLKKDKKTSNDSESKKKKKKKSKKESKKGKKSKHSSDEGDKSKHKKSKKSKKHKKEESSARRDRKEHI

binding: binds
B4: Ksp1p (protein, UniProt P38691 1-1029)
chain: MTLDYEIYKEGGILNNRYQKIEDISEGSYGYVSLAKDVREKRLVAVKYIFKLEDDGQYDGPQDDENDCDSSDCDDDEDTKVDTDRHENENGNASSNNGSSREKKHNLYKHKKSLISSKVKSRLSNNICLEAMYEVDIQTKIGRHQNIAALLDFFDSYIIMEYCSGGDLYEAIKADAVPKKTKSITHIITQIMDAIEYVHNKGIYHRDIKPENILISGIDWTIKLTDWGLATTDKTSMDRNVGSERYMSPELFDSNLDIKERKEPYDCAKVDLWAMGIVFLNIVFHKNPFSIANQSDKSFCYFAANREALFDVFSTMAYDFFQVLRYSLTIDPANRDLKMMRTELQNLSEYTLDDEYYNNLDEGYEETMIDGLPPQPVPPSSAPVSLPTPISSSNKQHMPEFKKDFNFNNVNERKRSDVSQNQNVASGFFKKPSTQQQKFFNQGYNTTLSTHERAKSAPKFKFKKRNKYGRTDNQFSKPVNIEDRKKSKILKKSRKPLGIPTPNTHMNNFFHDYKARDEFNTRDFFTPPSVQHRYMEGFSNNNNKQYRQNRNYNNNNNNSNNNHGSNYNNFNNGNSYIKGWNKNFNKYRRPSSSSYTGKSPLSRYNMSYNHNNNSSINGYARRGSTTTVQHSPGAYIPPNARNHHVSPTNQFLRVPQSTAPDISTVLGGKPSYQEHYTQDSMDSEGDHDSDDVLFTLEEGDHDFVNGMDNLSINDHLPHTTVGSHNEVFVHASTNHNNNGNNNHIDTNSTTNQYHRQYIPPPLTTSLHINNNNNESNELPDLLKSPASSEAHLNLSSGPIDPILTGNIGNRYSHSSDSKELEQERRLSMEQKFKNGVYVPPHHRKSFNLGTQVPPMNMKTSNEATLSVSHNSVNFGGSYNSRRSSANESNPLHMNKALEKLSSSPGAKSSFVGFPKPLLPRNHSSTTIALQNEDVFADSNNDAIIFEDEEYEGESDKMAHGKMEGGDNESSSTSPDERQIFGPYEIYAQTFAGSTHDKKLGAGRKTSIQDEMVGSLEQYKNNWLILQQQD

binding: binds
B6: Hef3p (protein, UniProt P53978 1-1044)
chain: MSDSQQSITVLEELFRKLETATSETREGISSELSSFLNGNIIEHDVPEVFFDEFQKAIQSKQKALNTLGAVAYIANETNLSPSVEPYIVATVPSVCSKAGSKDNDVQLAATKALKAIASAVNPVAVKALLPHLIHSLETSNKWKEKVAVLEVISVLVDAAKEQIALRMPELIPVLSESMWDTKKGVKEAATTTITKATETVDNKDIERFIPKLIECIANPNEVPETVHLLGATTFVAEVTPATLSIMVPLLSRGLAERETSIKRKAAVIIDNMCKLVEDPQVVAPFLGKLLPGLKNNFATIADPEAREVTLKALKTLRRVGNVGEDDVLPEISHAGDVSTTLGVIKELLEPEKVAPRFTIVVEYIAAIAANLIDERIIDQQTWFTHVTPYMTIFLHEKTAKEILDDFRKRAVDNIPVGPNFQDEEDEGEDLCNCEFSLAYGAKILLNKTQLRLKRGRRYGLCGPNGAGKSTLMRSIANGQVDGFPTQDECRTVYVEHDIDNTHSDMSVLDFVYSGNVGTKDVITSKLKEFGFSDEMIEMPIASLSGGWKMKLALARAVLKDADILLLDEPTNHLDTVNVEWLVNYLNTCGITSVIVSHDSGFLDKVCQYIIHYEGLKLRKYKGNLSEFVQKCPTAQSYYELGASDLEFQFPTPGYLEGVKTKQKAIVKVSNMTFQYPGTTKPQVSDVTFQCSLSSRIAVIGPNGAGKSTLINVLTGELLPTSGEVYTHENCRIAYIKQHAFAHIESHLDKTPSEYIQWRFQTGEDRETMDRANRQINENDAEAMNKIFKIEGTPRRVAGIHSRRKFKNTYEYECSFLLGENIGMKSERWVPMMSVDNAWLPRGELIESHSKMVAEIDMKEALASGQFRALTRKEIELHCAMLGLDSELVSHSRIRGLSGGQKVKLVLAACTWQRPHLIVLDEPTNYLDRDSLGALSKALKAFEGGVIIITHSAEFTKNLTDEVWAVKDGKMTPSGHNWVAGQGAGPRIEKKEEEGDKFDAMGNKINSGKKKSKLSSAELRKKKKERMKKKKEMGDEYVSSDEDF

binding: binds
B7: Tif2p (protein, UniProt P10081 1-395)
chain: MSEGITDIEESQIQTNYDKVVYKFDDMELDENLLRGVFGYGFEEPSAIQQRAIMPIIEGHDVLAQAQSGTGKTGTFSIAALQRIDTSVKAPQALMLAPTRELALQIQKVVMALAFHMDIKVHACIGGTSFVEDAEGLRDAQIVVGTPGRVFDNIQRRRFRTDKIKMFILDEADEMLSSGFKEQIYQIFTLLPPTTQVVLLSATMPNDVLEVTTKFMRNPVRILVKKDELTLEGIKQFYVNVEEEEYKYECLTDLYDSISVTQAVIFCNTRRKVEELTTKLRNDKFTVSAIYSDLPQQERDTIMKEFRSGSSRILISTDLLARGIDVQQVSLVINYDLPANKENYIHRIGRGGRFGRKGVAINFVTNEDVGAMRELEKFYSTQIEELPSDIATLLN

Results are given in words; binding and its absence hold for the method and conditions named. In cells and extracts the contact can be indirect. A yes stands for co-enrichment or nearness to the bait. Other partners may have been found. Each block holds one molecule with its values, some of them ahead of it.
